Results deposited as PubChem BioAssay AID1053209 (Peter MacCallum Cancer Centre, 2014)
This is one part, drawn at random, of about 1,580 deposited reagents. Over the whole deposit, 207 (13%) got an active call. 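Rows are single siRNAs; four siRNAs per gene were tested, a gene counting as confirmed only when at least two agree.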 The numbers tell different reagents against one gene apart. Further read-outs or replicates are left out here.

Aim: 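Knock-downs that sensitise mouse osteosarcoma cells to doxorubicin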 (follow-up of hits)
Cells: mouse primary osteosarcoma cells
Knock-down reagent: single siRNA against mouse genes, 25 nM (text also states 40 nM)
Duration: about 120 h (48 h before drug, then 72 h with drug)
Treatment: doxorubicin 100 nM (about IC30-40), added 48 h after transfection, for 72 h
Detection: 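Viability measured by ATP luminescence with and without doxorubicin, each replicate scaled to non-targeting siRNA NT1, averaged over two replicates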
Direction: viability with doxorubicin, vs NT1: higher = more viable cells under doxorubicin; viability without drug, vs NT1: higher = more viable cells without drug
Hit rule: 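Active when doxorubicin viability is at most 0.7 of NT1 and drug-free viability lies between 0.7 and 1.1, class LC dox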

Pth2r #1 — combined effect class = normal viability with and without drug; viability with doxorubicin, vs NT1 = 0.96; viability without drug, vs NT1 = 0.96; outcome = inactive
Pth2r #2 — combined effect class = normal viability with and without drug; viability with doxorubicin, vs NT1 = 1.02; viability without drug, vs NT1 = 1.06; outcome = inactive
Pth2r #3 — combined effect class = high viability only without drug; viability with doxorubicin, vs NT1 = 1.06; viability without drug, vs NT1 = 1.16; outcome = inactive
Pth2r #4 — combined effect class = normal viability with and without drug; viability with doxorubicin, vs NT1 = 1.02; viability without drug, vs NT1 = 1.03; outcome = inactive
Rpl13a #1 — combined effect class = low viability with and without drug; viability with doxorubicin, vs NT1 = 0.2; viability without drug, vs NT1 = 0.2; outcome = inactive
Rpl13a #2 — combined effect class = low viability with and without drug; viability with doxorubicin, vs NT1 = 0.32; viability without drug, vs NT1 = 0.48; outcome = inactive
Rpl13a #3 — combined effect class = low viability with and without drug; viability with doxorubicin, vs NT1 = 0.3; viability without drug, vs NT1 = 0.37; outcome = inactive
Rpl13a #4 — combined effect class = low viability with and without drug; viability with doxorubicin, vs NT1 = 0.32; viability without drug, vs NT1 = 0.55; outcome = inactive
Mib2 #1 — combined effect class = normal viability with and without drug; viability with doxorubicin, vs NT1 = 0.94; viability without drug, vs NT1 = 1.03; outcome = inactive
Mib2 #2 — combined effect class = normal viability with and without drug; viability with doxorubicin, vs NT1 = 1.07; viability without drug, vs NT1 = 1.06; outcome = inactive
Mib2 #3 — combined effect class = high viability only without drug; viability with doxorubicin, vs NT1 = 0.98; viability without drug, vs NT1 = 1.12; outcome = inactive
Mib2 #4 — combined effect class = normal viability with and without drug; viability with doxorubicin, vs NT1 = 0.74; viability without drug, vs NT1 = 0.98; outcome = inactive
E2f1 #1 — combined effect class = normal viability with and without drug; viability with doxorubicin, vs NT1 = 1.04; viability without drug, vs NT1 = 0.94; outcome = inactive
E2f1 #2 — combined effect class = high viability only with doxorubicin; viability with doxorubicin, vs NT1 = 1.12; viability without drug, vs NT1 = 1; outcome = inactive
E2f1 #3 — combined effect class = normal viability with and without drug; viability with doxorubicin, vs NT1 = 1.04; viability without drug, vs NT1 = 0.96; outcome = inactive
E2f1 #4 — combined effect class = normal viability with and without drug; viability with doxorubicin, vs NT1 = 0.97; viability without drug, vs NT1 = 0.95; outcome = inactive

Reformatted: 2 of the entries above
gene | siRNA no. | combined effect class | viability with doxorubicin, vs NT1 | viability without drug, vs NT1 | outcome
E2f1 | 1 | normal viability with and without drug | 1.04 | 0.94 | inactive
E2f1 | 2 | high viability only with doxorubicin | 1.12 | 1 | inactive

Additional records follow:
Psmb3 #1 — combined effect class = low viability only with doxorubicin; normal without drug; viability with doxorubicin, vs NT1 = 0.67; viability without drug, vs NT1 = 0.92; outcome = active
Psmb3 #2 — combined effect class = normal viability with and without drug; viability with doxorubicin, vs NT1 = 0.86; viability without drug, vs NT1 = 0.85; outcome = inactive
Psmb3 #3 — combined effect class = low viability only with doxorubicin; normal without drug; viability with doxorubicin, vs NT1 = 0.68; viability without drug, vs NT1 = 0.88; outcome = active
Psmb3 #4 — combined effect class = low viability with and without drug; viability with doxorubicin, vs NT1 = 0.34; viability without drug, vs NT1 = 0.7; outcome = inactive
Timm22 #1 — combined effect class = normal viability with and without drug; viability with doxorubicin, vs NT1 = 0.91; viability without drug, vs NT1 = 1.04; outcome = inactive
Timm22 #2 — combined effect class = normal viability with and without drug; viability with doxorubicin, vs NT1 = 0.79; viability without drug, vs NT1 = 0.93; outcome = inactive
Timm22 #3 — combined effect class = normal viability with and without drug; viability with doxorubicin, vs NT1 = 0.82; viability without drug, vs NT1 = 1.04; outcome = inactive
Timm22 #4 — combined effect class = normal viability with and without drug; viability with doxorubicin, vs NT1 = 0.8; viability without drug, vs NT1 = 0.96; outcome = inactive
